Data source: PubChem BioAssay AID1671195 (Yale University, 2021)
Assay: 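Knockdowns that increase or decrease uptake of fluorescent LDL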 (primary screen). System: human Huh7 hepatoma cells. Reagents: siRNA pool against human genes, 18 nM. Duration: about 2 to 2.5 days of knockdown, then 8 h LDL uptake. Treatment: DiI-labelled LDL at 30 µg/ml for 8 h, in lipoprotein-deficient serum medium. Detection: 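Fluorescent LDL signal imaged in cells, scaled to the plate median, robust z-score for each replicate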. Scale: robust z-score: higher = more LDL uptake after knockdown. Hit rule: 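a gene counts as active if at least two replicate z-scores exceed ±2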.
Shown is an unselected part of about 22,000 deposited reagents. About 1,510 of them (6.9%) count as active. 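Active includes knockdowns raising or lowering LDL uptake; positive z-scores mean more uptake, negative mean less.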 The numbers tell different reagents against one gene apart.

| gene knocked down | pool no. | robust z-score, replicate 1 | robust z-score, replicate 2 | robust z-score, replicate 3 | Outcome |
| --- | --- | --- | --- | --- | --- |
| H2BC11 | 1 | 0.322 | -1.23 | -1.49 | inactive |
| TTC39B | 1 | 0.587 | 0.956 | 1.25 | inactive |
| MID1IP1 | 1 | -1.57 | -1.63 | -1.63 | inactive |
| LOC389863 (retired record) | 1 | -0.349 | -0.128 | -0.45 | inactive |
| GEMIN2 | 1 | -0.671 | 0.108 | 0.524 | inactive |
| FAM169A | 1 | -1.05 | -0.145 | 0.828 | inactive |
| NFAM1 | 1 | 0.227 | -0.184 | 0.217 | inactive |
| PLEKHG6 | 1 | 0.0446 | -1.31 | 1.15 | inactive |
| CCDC144NL | 1 | 2.58 | 2.28 | 2.6 | active |
| PSMF1 | 1 | 0.323 | 0.553 | -0.687 | inactive |
| TACR1 | 1 | -1.03 | -1.41 | -1.53 | inactive |
| TCP10L | 1 | 3.39 | 2.89 | 3.32 | active |
| TCP10L | 2 | 0.816 | 0.184 | 0.498 | inactive |
| GZMB | 1 | -0.493 | -0.852 | -0.973 | inactive |
| ATP8A1 | 1 | 0.472 | 1.03 | 1.04 | inactive |
| WSB2 | 1 | -0.739 | 0.801 | -1.32 | inactive |
| ARHGAP25 | 1 | -1.56 | -0.915 | 1.1 | inactive |
| HMX3 | 1 | -0.551 | -0.129 | 0.0895 | inactive |
| SLC10A4 | 1 | 1.41 | 0.497 | 0.736 | inactive |
| SLC4A7 | 1 | 0.0929 | -0.216 | 0.261 | inactive |
| ISX | 1 | -0.0553 | -0.248 | -0.466 | inactive |
| ARPC1A | 1 | 2.37 | 1.77 | 1.58 | inactive |
| EIF4HP1 | 1 | -0.849 | -0.907 | -0.985 | inactive |
| ACVRL1 | 1 | 1.97 | 2.24 | 2.35 | active |
| CES3 | 1 | 1.22 | 1.53 | 1.39 | inactive |
| LCE2A | 1 | 0.654 | 0.924 | 0.68 | inactive |
| COX7A2 | 1 | -0.601 | -0.387 | -0.842 | inactive |
| OPN5 | 1 | -1.65 | -1.84 | -1.77 | inactive |
| OR7E85P | 1 | 0.612 | 0.389 | 0.819 | inactive |
| LOC130063 (retired record) | 1 | 0.179 | -1.44 | -0.612 | inactive |
| LIF | 1 | -0.607 | -0.263 | -0.278 | inactive |
| RPA3P1 | 1 | 0.0445 | 0.059 | -3.18 | inactive |
| SLC25A19 | 1 | -0.323 | -0.68 | -0.144 | inactive |
| ARPC5L | 1 | -0.166 | 0.727 | 0.435 | inactive |
| LRRC37B | 1 | -0.215 | -1.14 | -0.828 | inactive |
| CCDC136 | 1 | 0.627 | 0.888 | -0.106 | inactive |
| NAF1 | 1 | 1.49 | -0.507 | 0.761 | inactive |
| HEATR6 | 1 | 0.123 | -0.0217 | -0.449 | inactive |
| BORCS7 | 1 | -0.569 | -0.774 | -0.866 | inactive |
| MLANA | 1 | -0.0493 | 0.647 | -1.16 | inactive |
| ZNHIT3 | 1 | 0.344 | 0.231 | 0.415 | inactive |
| MED4 | 1 | -0.753 | -1.36 | -0.571 | inactive |
| LOC441113 (retired record) | 1 | -0.835 | -1.27 | -1.24 | inactive |
| ARMC10P1 | 1 | -0.73 | -0.757 | -0.653 | inactive |
| CNOT4 | 1 | 0.774 | 0.725 | 1.42 | inactive |
| FAM216B | 1 | 0.192 | 0.775 | 0.61 | inactive |
| RIIAD1 | 1 | -1.87 | -1.63 | -2.08 | inactive |
| PLA2G15 | 1 | -1.03 | -0.668 | -0.249 | inactive |
| AQP5 | 1 | -0.363 | 0.00842 | -0.815 | inactive |
| PDE8A | 1 | -1.3 | -1.04 | -1.17 | inactive |
| LPXN | 1 | -0.927 | -0.68 | -0.983 | inactive |
| DYNC2I2 | 1 | 0.807 | 1.82 | 2.19 | inactive |
| SLC35D2 | 1 | -0.397 | -0.523 | -0.606 | inactive |
| ABCB7 | 1 | 0.354 | 0.119 | 0.792 | inactive |
| TCL6 | 1 | 1.55 | 1.85 | 2.76 | inactive |
| CHST1 | 1 | -1.97 | -2.11 | -1.89 | inactive |
| TCAF1 | 1 | 2.33 | 1.92 | -0.298 | active |
| LOC440676 (retired record) | 1 | -0.743 | -0.673 | -0.394 | inactive |
| GNG13 | 1 | 0.623 | 0.93 | 1.68 | inactive |
| ROPN1B | 1 | 0.963 | 1.09 | -0.0493 | inactive |
| SLC25A13 | 1 | -1.23 | -0.82 | -0.705 | inactive |
| SHOX2 | 1 | -1.13 | -0.809 | 0.331 | inactive |
| FYCO1 | 1 | 0.744 | 1.12 | 1.62 | inactive |
| GRINA | 1 | -0.311 | -0.471 | 0.334 | inactive |
| COPS2 | 1 | -1.23 | -1.2 | -1.58 | inactive |
| ATP13A5 | 1 | 0.571 | 0.0258 | 0.191 | inactive |
| XRCC6P2 | 1 | -0.21 | -0.525 | -0.4 | inactive |
| TSSK3 | 1 | 0.497 | -0.0326 | 0.0291 | inactive |
| LOC390846 | 1 | -0.127 | -0.488 | -0.0273 | inactive |
| OCIAD2 | 1 | -0.986 | -1.32 | -1.27 | inactive |
| AFMID | 1 | 0.723 | 1.02 | 1.08 | inactive |
| KNDC1 | 1 | 0.455 | 0.123 | 0.186 | inactive |
| LOC441614 (retired record) | 1 | -1.97 | -1.68 | -1.78 | inactive |
| PRSS36 | 1 | 0.819 | 0.975 | 0.995 | inactive |
| FRAT2 | 1 | 1.03 | -0.983 | 1.86 | inactive |
| ZNF707 | 1 | 0.143 | -0.0561 | -0.214 | inactive |
| CAPN12 | 1 | 0.967 | 1.29 | 3.09 | inactive |
| A2M | 1 | -0.0656 | 0.274 | -0.0277 | inactive |
| SLC52A1 | 1 | -0.578 | -0.438 | -0.892 | inactive |
| LOC401621 (retired record) | 1 | 0.0305 | -1.37 | -1.02 | inactive |
| KIF27P2 | 1 | 1.19 | 1.5 | 1.52 | inactive |
| LOC387630 (retired record) | 1 | 0.716 | 0.569 | 0.689 | inactive |
| U2SURP | 1 | -0.264 | -0.408 | -0.452 | inactive |
| NPEPPSP1 | 1 | -0.304 | -0.604 | -0.53 | inactive |
| DHCR24 | 1 | -0.645 | -1.33 | -1.04 | inactive |
| ZC3H4 | 1 | 2.01 | 0.913 | 1.07 | inactive |
| TMEM201 | 1 | -0.197 | 0.21 | 0.51 | inactive |

Reprinted from above for reference:
| gene knocked down | pool no. | robust z-score, replicate 1 | robust z-score, replicate 2 | robust z-score, replicate 3 | Outcome |
| --- | --- | --- | --- | --- | --- |
| OR7E85P | 1 | 0.612 | 0.389 | 0.819 | inactive |
| LOC130063 (retired record) | 1 | 0.179 | -1.44 | -0.612 | inactive |
| LIF | 1 | -0.607 | -0.263 | -0.278 | inactive |
| RPA3P1 | 1 | 0.0445 | 0.059 | -3.18 | inactive |
| SLC25A19 | 1 | -0.323 | -0.68 | -0.144 | inactive |
| ARPC5L | 1 | -0.166 | 0.727 | 0.435 | inactive |
| LRRC37B | 1 | -0.215 | -1.14 | -0.828 | inactive |
| CCDC136 | 1 | 0.627 | 0.888 | -0.106 | inactive |
| NAF1 | 1 | 1.49 | -0.507 | 0.761 | inactive |
| HEATR6 | 1 | 0.123 | -0.0217 | -0.449 | inactive |
| BORCS7 | 1 | -0.569 | -0.774 | -0.866 | inactive |
| MLANA | 1 | -0.0493 | 0.647 | -1.16 | inactive |
| ZNHIT3 | 1 | 0.344 | 0.231 | 0.415 | inactive |
| MED4 | 1 | -0.753 | -1.36 | -0.571 | inactive |
